The values that follow come from PMC7819943, “Rice protein-binding microarrays: a tool to detect cis-acting elements near promoter regions in rice”.

By UniProt entry, the sequences of proteins in these tests, tags left out.
UniProt Q0JBA9, entry or part of it: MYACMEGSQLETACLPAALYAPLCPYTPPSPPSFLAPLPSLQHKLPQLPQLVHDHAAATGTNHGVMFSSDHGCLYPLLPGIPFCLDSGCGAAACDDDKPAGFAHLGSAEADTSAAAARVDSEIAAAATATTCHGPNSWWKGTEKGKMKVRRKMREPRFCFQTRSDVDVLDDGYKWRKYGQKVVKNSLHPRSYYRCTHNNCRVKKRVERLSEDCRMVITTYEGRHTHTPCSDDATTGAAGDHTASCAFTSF

The other results are listed elsewhere or left out.

The target of the experiment is OsWRKY34 (Oryza sativa, UniProt Q0JBA9 1-250). The experiment can be described thus: protein-binding microarray (RPBM); PBS, 2% BSA, 51.3 ng/ul salmon testes DNA, 50 uM zinc acetate, 200 nM TF, 25 C, 1 h; high values mean tight binding. Conditions: protein: recombinant; tags: N-terminal polyhistidine and DsRed monomer fusion (pET32a); label: CyDye5-dUTP incorporated in the synthesized complementary strand; 3' TTTTT single-stranded linker to array surface; dsDNA, one strand shown. In short, it runs like this:
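Transcription factors were each fused at the N-terminus to a polyhistidine tag plus DsRed and expressed in E. coli BL21-CodonPlus before Ni–NTA purification. Binding to a double-stranded custom Agilent array was carried out with 200 nM protein at 25 °C for 1 h in PBS, 2% BSA, salmon testes DNA and 50 µM zinc acetate. The binding signal is per-feature fluorescence intensity, in arbitrary units, on an Axon 4000B scanner.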
Take “TATTATTTTCATGATCTATTTACATCATTGTACTCTACATCGGAGTCACCTAGTGCAG”: the binding signal is 8400 fluorescence intensity (a.u.).
Regarding “AGACGGAGGAGGACAAGGACATAGGGGAGGAGGGGCGAGGCGGAGTCACCTAGTGCAG”, the binding signal was 9530 fluorescence intensity (a.u.).
As to “GAGGCGCTGTTCGTGGGGTCGGTGGTGTCGGTGGCGGCGCCGGAGTCACCTAGTGCAG”, the binding signal is 12000 fluorescence intensity (a.u.).
Under “GCTGCTGGTAAATACACTCTTCTCTGAGCTTCCTCAAGCTCGGAGTCACCTAGTGCAG” stands 8940 fluorescence intensity (a.u.); under “CCGCTGAATCCATCTCCACCTCCTCACCTATTCGCTAACGCGGAGTCACCTAGTGCAG”, 10400 fluorescence intensity (a.u.); under “GTAGATATATATTGTTCCACTTATCGTTTATTGCGCTCAACGGAGTCACCTAGTGCAG”, 8560 fluorescence intensity (a.u.).
Turning to “CCTCCTCTCTCTCGCTCGCTCCGCTCTTCTTGACAAGGAACGGAGTCACCTAGTGCAG”, the binding signal is 8460 fluorescence intensity (a.u.).
Under “ATCAGTCGTCTAGTTCGTCGGCTGTCATTTTTAAATTCCTCGGAGTCACCTAGTGCAG” stands 8400 fluorescence intensity (a.u.).
Consider “ATGGGGTGTTTTTTTTTTCGCTATATTCTCTTAGAACTGTCGGAGTCACCTAGTGCAG”, for which the binding signal is 18000 fluorescence intensity (a.u.).
Regarding “ATCATTTCTTTGATTTTGGTCTTGCTTGAGCTTTTGTTTCCGGAGTCACCTAGTGCAG”, the binding signal was 10100 fluorescence intensity (a.u.).
Take “GGCCTCAACCAGGCCAGGCCCATTTTAACCGCGTCTCTCCCGGAGTCACCTAGTGCAG”: the binding signal was 11500 fluorescence intensity (a.u.).
Consider “CCCAGCCCAACAAGCATCCCACTAGATCATCACGGCCTCTCGGAGTCACCTAGTGCAG”, for which the binding signal was 10700 fluorescence intensity (a.u.).
Under “TCGCCATCTTTGACCGCGCAAACGCCGTCGTTCGCGAACTCGGAGTCACCTAGTGCAG” stands 9320 fluorescence intensity (a.u.); under “TTTTTCATGTTTTTGTTCCTTTTTGAGTGCTTTTATTTCTCGGAGTCACCTAGTGCAG”, 12900 fluorescence intensity (a.u.).
For the sequence “GCGGGTTCCCATAGGCGGTGGTGTCACTTTCTCCATGTTTCGGAGTCACCTAGTGCAG”, the binding signal is 8040 fluorescence intensity (a.u.).
To “AATTCTGTTAGCTTCTCTGAACTTTGGTCTTTATTTTGAACGGAGTCACCTAGTGCAG” belongs 10200 fluorescence intensity (a.u.); to “AAACCGTCTTAGGACCTTATGTGCACTGGATTTCTAAGTTCGGAGTCACCTAGTGCAG”, 8080 fluorescence intensity (a.u.).
To “TGAGTGTTCTCTGCCTGCCATTTTGATTATTCATTTTATGCGGAGTCACCTAGTGCAG” belongs 8900 fluorescence intensity (a.u.); to “GTGACACTGACATGTGGGTTCCACGGGATTTATTATTTTTCGGAGTCACCTAGTGCAG”, 8370 fluorescence intensity (a.u.); to “CGTCATTACATGGGCCTGGCTGCTCTGGATGTCTTCTTTTCGGAGTCACCTAGTGCAG”, 8150 fluorescence intensity (a.u.).
For the sequence “GGGTTTTCCAGCTTCTGGCTTCTAGTTCATTTTCTGGATTCGGAGTCACCTAGTGCAG”, the binding signal is 8440 fluorescence intensity (a.u.).
On to “GACTTACTTTATTATCCAAAGTACTTTACGCACAACTTTTCGGAGTCACCTAGTGCAG”, for which the binding signal is 8130 fluorescence intensity (a.u.).
For the sequence “CGGCTTGATGCGCGCTCCCTCCGATTTTTCACCTTTGTCCCGGAGTCACCTAGTGCAG”, the binding signal was 12400 fluorescence intensity (a.u.).
“ACCTTAACTCTCTCCTTGCTTCCCAAACATGGTTAAATTACGGAGTCACCTAGTGCAG”: the binding signal was 10900 fluorescence intensity (a.u.).
As for “TTTCCCTTCTGTTTTTTTTCGGTTTTTTAATGTATGAATACGGAGTCACCTAGTGCAG”, the binding signal was 8820 fluorescence intensity (a.u.).
For the sequence “ATTCTTCCATGCTTCCGGCGGGACCGCGTCGCGCGCACGCCGGAGTCACCTAGTGCAG”, the binding signal was 8630 fluorescence intensity (a.u.).
With “GACTCTGGACTCTTGCGATTCGTCTCCAGCCGCGGCCATGCGGAGTCACCTAGTGCAG”, the binding signal was 8160 fluorescence intensity (a.u.).
As to “TGCATACAACTGACTTATAATCTGCTATTGTACTCGCTGCCGGAGTCACCTAGTGCAG”, the binding signal was 8300 fluorescence intensity (a.u.).
As for “GTTGTCGCTCATTTTCCTCCCGTACGTTCCAGCTAGCTCACGGAGTCACCTAGTGCAG”, the binding signal is 9010 fluorescence intensity (a.u.).
As to “CTCGCGCCCCATCGATCAACCTCTCTCCCGCCAACGCCCACGGAGTCACCTAGTGCAG”, the binding signal was 12600 fluorescence intensity (a.u.).
For “CGATGCTCTCCAGCTCTCCCTTGTTCGTGATGGCCGCTCCCGGAGTCACCTAGTGCAG”, the binding signal was 8130 fluorescence intensity (a.u.).
Consider “TTCCTGTGAGATGAACACGTTTTTGTTTTGTTTTGTTTTTCGGAGTCACCTAGTGCAG”, for which the binding signal was 10500 fluorescence intensity (a.u.).
To “GGCTGGTCTGGTGCATCGCCCACCGATTTCATCGTGCCGTCGGAGTCACCTAGTGCAG” belongs 8920 fluorescence intensity (a.u.); to “TCGCAGCAGCTGTTTTACCGGCTAGTTTTTTGCACACATCCGGAGTCACCTAGTGCAG”, 8600 fluorescence intensity (a.u.); to “AGCCTAGTTTCTTCCTTTGTCCACGTGTAATATTTGAAGTCGGAGTCACCTAGTGCAG”, 9940 fluorescence intensity (a.u.).
Regarding “TATATATATATATATATATATATAAAATAAGAAAATCTGACGGAGTCACCTAGTGCAG”, the binding signal was 9950 fluorescence intensity (a.u.).
In the case of “TCCCACAGTTTCACAATATAAATTATTCTAGTATTTCCCACGGAGTCACCTAGTGCAG”, the binding signal is 8250 fluorescence intensity (a.u.).
With “CAAACAGTATCCGGTTTGTATATTAGCACTTCACCTGCTTCGGAGTCACCTAGTGCAG”, the binding signal is 8060 fluorescence intensity (a.u.).
As to “TAGTCTTTACAAGTTCTTTTGGGCCTATAACTGTAGTTCCCGGAGTCACCTAGTGCAG”, the binding signal was 8910 fluorescence intensity (a.u.).
To “GCACGTGGTTTTAAGGTGGGTATTTTGGTGCACTTTTTTCCGGAGTCACCTAGTGCAG” belongs 11000 fluorescence intensity (a.u.).
With “TGCGTTTTTTTCGCGTAGCTGTTCACATGGTTACAACTTACGGAGTCACCTAGTGCAG”, the binding signal was 9640 fluorescence intensity (a.u.).
In the case of “TGGGGCGGCTGGTAGTTCCAGGCCGGGAGACTAATTCTGACGGAGTCACCTAGTGCAG”, the binding signal is 8760 fluorescence intensity (a.u.).
